Values quoted from earlier work as cited in patent US6130215A, “Piperazinylalkylthiopyrimidine derivatives, pharmaceutical compositions containing the same and a process for the preparation of the novel compounds” (Egis Gyoyszergyar RT, priority 1995, dated 2000).
At least one compound was matched to its structure with a doubt left.

Tests used:
[1] = tested on: human beings; details: cited from earlier work
[2] = tested on: rats; details: cited from earlier work

SMILES: Clc1cccc(N2CCNCC2)c1 [m-chlorophenylpiperazine]
- anxiety in human beings [1]: induces anxiety
- anxiety in rats [2]: induces anxiety
